According to PubChem BioAssay AID504467 (National Center for Advancing Translational Sciences (NCATS), 2011):
Hit rate of the full screen: of about 330,000 compounds, about 7,700 (2.3%) were called active. The shares of active, inactive and inconclusive entries below differ from those in the screen. Calls come from the whole dose curve; as a rule, active = well fitted inhibition curve with a large enough effect; inconclusive = small, poorly fitted or top-dose-only effect, or effect the other way; inactive = flat fitted curve, though single readings scatter. Potencies of inconclusive entries are doubtful fits and often do not repeat.
Potency is the fitted concentration of half-maximal effect.

Test: qHTS screen for small molecules that inhibit ELG1-dependent DNA repair in human embryonic kidney (HEK293T) cells expressing luciferase-tagged ELG1; note: nearly all actives have a fitted effect of over 55% in size
Details: HEK293T ELG1-luciferase reporter, luminescence, 16 h, DNA damage induced by 5-fluorouridine; series mostly up to 46.1 µM
How it was run: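 HEK293T cells expressing luciferase-tagged ELG1 (2,000/well) received 5-Fluorouridine plus compound or DMSO for 16 hr at 37 °C. Luciferase was read by ONE-Glo luminescence after 30 min at room temperature.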
With COc1ccc(Nc2nc(-c3ccc(OC)cc3)cs2)cc1 the Potency was inconclusive: 6.51 µM [activator, full curve]. With CCc1cc2ccccc2nc1SCC(=O)Nc1cc(C)on1 the Potency was “inactive”. For COc1cc(C(=O)N/N=C/c2sccc2C)cc(OC)c1OC, the Potency was “inactive”. In the case of COc1cc(NC(=O)c2ccc(C)cc2C)ccc1NC(=O)c1cc2ccccc2o1, the Potency is reported as “inactive”. With CCCCN(C(=O)c1ccc(N2C(=O)c3ccccc3C2=O)cc1)c1c(N)n(CC(C)C)c(=O)[nH]c1=O the Potency was inconclusive: 8.2 µM [activator, single point]. With Cc1cc(S(=O)(=O)NC2CCCCC2)ccc1OCC(=O)NCc1ccccn1 the Potency was inconclusive: 0.58 µM [inhibitor, single point]. For C/C(CCc1ccccc1)=N\NC(=O)c1ccccc1, the Potency was inconclusive: 29.1 µM [activator, single point]. For CCC1CCc2c(sc(NC(=O)c3ccco3)c2C(N)=O)C1 (stereo unspecified), the Potency was inconclusive: 6.51 µM [activator, partial curve]. With CCOc1ccccc1NC(=O)c1cnc(NS(=O)(=O)c2ccccc2)nc1 the Potency was “inactive”. In the case of COc1ccc(NC(=O)C(C)N(C)Cc2ccc3ccccc3c2)cc1 (stereo unspecified), the Potency is reported as inconclusive: 14.6 µM [inhibitor, single point]. In the case of COc1ccc(OC)c(/C=C/C(=O)NC2=NCCS2)c1, the Potency is reported as “inactive”. In the case of O=C(O)C1CCN(C(=O)CSc2nc3ccccc3s2)CC1, the Potency is reported as “inactive”. In the case of CCCCNC(=O)Cn1cnc2c(cnn2-c2ccc(C)c(C)c2)c1=O, the Potency is reported as “inactive”. In the case of c1ccc(-c2cn(CC3CCCCC3)nn2)cc1, the Potency is reported as inconclusive: 11.6 µM [activator, partial curve]. With Cc1cccc(N2O[C@H]3C=CC2CCCC3)n1 the Potency was inconclusive: 20.6 µM [activator, partial curve]. In the case of COc1cc2c(C#N)c(N3CCCC3)nc(N)c2c(N)n1, the Potency is reported as “inactive”. In the case of CC(C)=NNc1nc(-c2ccc([N+](=O)[O-])cc2)cs1, the Potency is reported as “inactive”. In the case of Cc1cc(Br)cc(C)c1OCC(=O)NNC(=O)CCC(=O)NCc1ccccc1, the Potency is reported as inconclusive: 6.51 µM [activator, full curve, poor fit]. With CC1=NN(C(N)=S)C(=O)C1N=Nc1cccc(Cl)c1 (stereo unspecified) the Potency was inconclusive: 18.3 µM [activator, partial curve]. In the case of Cc1nn(CCc2nn[nH]n2)c2nc(-c3ccccc3)cc(C(F)(F)F)c12, the Potency is reported as inconclusive: 16.4 µM [inhibitor, single point]. For O=C(Cc1coc2cc3c(cc12)CCC3)NCC1(N2CCCCC2)CCCCC1, the Potency was “inactive”. For CCOc1ccc(CCNC(=O)c2cc(C)nn2-c2ccccc2)cc1, the Potency was inconclusive: 29.1 µM [inhibitor, single point]. For Cc1ccc(-c2cnc(-c3ccncc3)o2)cc1, the Potency was inconclusive: 16.4 µM [activator, partial curve]. For O=C(Nc1ccccc1)c1ccc2c(c1)OCCCO2, the Potency was inconclusive: 1.83 µM [activator, partial curve]. In the case of O=C(Nc1cccc(S(=O)(=O)C(F)F)c1)c1ccc(Cl)c(S(=O)(=O)N2CCOCC2)c1, the Potency is reported as active: 7.31 µM. With O=C(CCCn1c(=S)[nH]c2ccsc2c1=O)Nc1ccc2c(c1)OCCO2 the Potency was inconclusive: 18.3 µM [activator, partial curve]. In the case of C=CCC[C@@H](Cc1ccc(F)cc1)C(=O)OC[C@@H](Cc1ccccc1)NC(=O)[C@@H](CC=C)CC(=O)N[C@@H](CO)Cc1ccccc1, the Potency is reported as inconclusive: 25.9 µM [activator, single point]. For CC(C)C(C(=O)Nc1ccncc1)c1ccc(Cl)cc1 (stereo unspecified), the Potency was inconclusive: 4.61 µM [inhibitor, full curve]. For Cc1nnc(SCC(=O)Nc2ncc3c(n2)CCCC3=O)s1, the Potency was inconclusive: 23.1 µM [inhibitor, single point]. With CNC(=S)N1CCN(c2nc3ccccc3s2)CC1 the Potency was inconclusive: 18.3 µM [activator, partial curve]. In the case of O=C(COC(=O)CNC(=O)c1ccc(Cl)c([N+](=O)[O-])c1)NC(=O)CN1CCCC1=O, the Potency is reported as “inactive”. With Cc1ncsc1CCC(=O)N1CCCC(Nc2ccc(C(C)C)cc2)C1 (stereo unspecified) the Potency was “inactive”. In the case of CN(C(=O)COC(=O)CSCc1cccc(Cl)c1)c1c(N)n(Cc2ccccc2)c(=O)[nH]c1=O, the Potency is reported as inconclusive: 25.9 µM [inhibitor, single point]. With CSCCC(NC(=O)c1ccccc1)c1nc(-c2ccccc2)no1 (stereo unspecified) the Potency was inconclusive: 25.9 µM [inhibitor, single point]. In the case of CCc1ccc(-c2cc(C(=O)N/N=C/c3c[nH]c4ccccc34)[nH]n2)cc1, the Potency is reported as inconclusive: 13 µM [inhibitor, partial curve]. In the case of O=C(Nc1cc([N+](=O)[O-])ccc1F)C1CCN(S(=O)(=O)c2cccs2)CC1, the Potency is reported as “inactive”. In the case of COc1ccc(C(=O)CSc2cc(C)nc(SCC(=O)c3ccc(C)cc3)n2)cc1, the Potency is reported as active: 5.17 µM. For CCCc1cc(=O)n2[nH]c(NCc3cccs3)nc2n1, the Potency was “inactive”. In the case of O=C(Cc1ccc(Cl)cc1)Nc1ccc(SC(F)F)cc1, the Potency is reported as inconclusive: 20.6 µM [activator, single point]. For O=C(/C=C/c1ccc(Cl)c(Cl)c1)N1CCOCC1, the Potency was inconclusive: 35.5 µM [activator, single point]. With CC(Sc1ncccn1)C(=O)N1CCc2ccccc21 (stereo unspecified) the Potency was inconclusive: 29.1 µM [activator, single point]. In the case of CC(C)Cn1c(N)c(C(=O)COC(=O)c2cccc(Cl)c2)c(=O)n(C)c1=O, the Potency is reported as active: 20.6 µM. In the case of CN(C)S(=O)(=O)N1CCN(c2ccc([N+](=O)[O-])c(NC3CC3)c2)CC1, the Potency is reported as “inactive”. With CCOC(=O)c1[nH]c(C)c(C(=O)N2CCN(c3cccc(Cl)c3)CC2)c1C the Potency was inconclusive: 6.51 µM [inhibitor, full curve, poor fit]. With Cc1cc(NC(=O)c2cc(-c3ccccc3Cl)nc3ccccc23)no1 the Potency was inconclusive: 29.1 µM [inhibitor, single point]. With COc1ccccc1/C=C/C(=O)OCC(=O)Nc1ccc2c(c1)OCO2 the Potency was inconclusive: 20.6 µM [activator, partial curve, poor fit]. In the case of CSc1ccc(/C=C(\C(=O)O)c2ccc(S(=O)(=O)N3CCCC3)s2)cc1, the Potency is reported as inconclusive: 35.5 µM [activator, single point]. With N/C(=N\OC(=O)CN1C(=O)c2ccccc2C1=O)c1ccc(Cl)cc1 the Potency was inconclusive: 29.1 µM [activator, single point]. In the case of O=c1cc(N=Nc2ccc(Cl)cc2)[nH]c(=O)[nH]1, the Potency is reported as active: 23.1 µM. For COc1ccccc1CNC(=O)c1cc(C(C)C)nc2ccccc12, the Potency was inconclusive: 10.3 µM [inhibitor, partial curve, poor fit]. For Cc1ccc(-n2ncc3c(SCc4cccnc4)ncnc32)c(C)c1, the Potency was inconclusive: 18.3 µM [activator, single point]. For CNC(=O)NC(=O)C(c1ccccc1)N(C)CC1COc2ccccc2O1 (stereo unspecified), the Potency was “inactive”. In the case of CC(C)Sc1ccc(C(=O)Nc2ccc(F)cc2F)cn1, the Potency is reported as inconclusive: 14.6 µM [activator, partial curve]. With COc1ccc(C(CNc2ccc(S(=O)(=O)N3CCCC3)cc2[N+](=O)[O-])N2CCCC2)cc1 (stereo unspecified) the Potency was inconclusive: 25.9 µM [inhibitor, partial curve]. With COc1ccccc1NS(=O)(=O)c1cccc(NS(=O)(=O)c2ccc(Cl)c(C(=O)O)c2)c1 the Potency was inconclusive: 32.6 µM [activator, partial curve, poor fit]. With Cc1cccc(NC(=O)COc2ccc(Br)cc2C)n1 the Potency was inconclusive: 2.59 µM [activator, full curve]. With CCN(CC)CCCNC(=O)c1cc2c(=O)n(CC)c3ccccc3c2s1 the Potency was inconclusive: 3.66 µM [activator, full curve]. In the case of Cc1cccc(N=N/C(=C\O)C(=O)c2ccc(Br)cc2)c1, the Potency is reported as inconclusive: 18.3 µM [inhibitor, single point]. In the case of C=C(C)Cn1c(SCC(=O)N/N=C/c2ccccc2OCC(=O)O)nnc1-c1ccc(Br)cc1, the Potency is reported as “inactive”. With Cc1ccccc1S(=O)c1ccccc1C(=O)O (stereo unspecified) the Potency was “inactive”. For O=C(CN(C(=O)C1COc2ccccc2O1)c1ccccc1)NCC1CCCO1 (stereo unspecified), the Potency was “inactive”. In the case of CCCN(CC(=O)Nc1ccccc1C)C(=O)CCN1C(=O)c2cccc([N+](=O)[O-])c2C1=O, the Potency is reported as “inactive”. With CC1=C(C(=O)c2ccccc2)C(c2cn(-c3ccccc3)nc2-c2ccc(Cl)cc2)NC(=S)N1 (stereo unspecified) the Potency was “inactive”. In the case of COc1ccc(-c2n[nH]c3c2CN(C(=O)c2ccc(OC)c(OC)c2)CC3)cc1, the Potency is reported as inconclusive: 9.2 µM [inhibitor, partial curve]. For COc1ccc2nc(C)cc(NCc3cccc(C(F)(F)F)c3)c2c1, the Potency was “inactive”. In the case of O=C(CN(C(=O)CSc1nnc(COc2ccccc2)o1)c1ccc(F)cc1)NC1CCCC1, the Potency is reported as inconclusive: 18.4 µM [inhibitor, partial curve, poor fit]. For COc1ccc(C(=O)NNC(=O)c2cccc(S(=O)(=O)N3CCOCC3)c2)cc1, the Potency was “inactive”. With O=C(CCN1C(=O)/C(=C/c2ccccc2F)SC1=S)N[C@@H](CO)Cc1ccccc1 the Potency was inconclusive: 23.1 µM [inhibitor, partial curve]. For O=C(/C=C/c1cccc(Cl)c1)NCCN1CCOCC1, the Potency was inconclusive: 32.6 µM [activator, single point]. In the case of CCN(CCn1cccn1)C(=O)CCc1nnc(C2CCCCC2)o1, the Potency is reported as inconclusive: 23.1 µM [activator, partial curve]. In the case of OC[C@@H]1[C@@H](c2ccc(F)cc2)C(c2cccc(Cl)c2)=NN1c1ccccc1, the Potency is reported as “inactive”.
